The supplement of paper PMC12067093, “Discovery and optimisation of a covalent ligand for TRIM25 and its application to targeted protein ubiquitination” (Chemical Science, 2025)
Some of the results follow.

By UniProt entry, the sequences of proteins in these tests, tags left out. Where a name states a change or a piece, a line headed by the entry shows the natural chain unless it says otherwise.
UniProt Q9NW13: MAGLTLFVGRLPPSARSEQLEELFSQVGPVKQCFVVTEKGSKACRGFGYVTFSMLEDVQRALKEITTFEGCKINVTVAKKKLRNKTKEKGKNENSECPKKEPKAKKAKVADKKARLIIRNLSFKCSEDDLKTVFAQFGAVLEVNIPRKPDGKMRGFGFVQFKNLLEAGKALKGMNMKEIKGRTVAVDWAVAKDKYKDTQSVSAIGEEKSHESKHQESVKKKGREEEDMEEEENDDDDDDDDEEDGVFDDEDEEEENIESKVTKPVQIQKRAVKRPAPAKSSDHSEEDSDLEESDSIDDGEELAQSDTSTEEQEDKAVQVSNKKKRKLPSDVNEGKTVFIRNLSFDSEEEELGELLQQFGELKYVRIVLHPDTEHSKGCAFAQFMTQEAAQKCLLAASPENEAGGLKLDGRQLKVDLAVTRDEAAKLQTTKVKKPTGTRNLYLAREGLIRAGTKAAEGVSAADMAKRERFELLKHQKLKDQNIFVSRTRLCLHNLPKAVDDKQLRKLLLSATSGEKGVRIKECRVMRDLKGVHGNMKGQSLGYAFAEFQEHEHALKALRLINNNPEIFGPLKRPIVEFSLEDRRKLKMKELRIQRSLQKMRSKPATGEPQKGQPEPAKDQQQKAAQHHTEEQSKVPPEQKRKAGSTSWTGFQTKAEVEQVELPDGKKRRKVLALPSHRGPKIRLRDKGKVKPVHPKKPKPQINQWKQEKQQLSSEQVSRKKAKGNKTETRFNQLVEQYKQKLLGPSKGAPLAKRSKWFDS
UniProt A6NED2: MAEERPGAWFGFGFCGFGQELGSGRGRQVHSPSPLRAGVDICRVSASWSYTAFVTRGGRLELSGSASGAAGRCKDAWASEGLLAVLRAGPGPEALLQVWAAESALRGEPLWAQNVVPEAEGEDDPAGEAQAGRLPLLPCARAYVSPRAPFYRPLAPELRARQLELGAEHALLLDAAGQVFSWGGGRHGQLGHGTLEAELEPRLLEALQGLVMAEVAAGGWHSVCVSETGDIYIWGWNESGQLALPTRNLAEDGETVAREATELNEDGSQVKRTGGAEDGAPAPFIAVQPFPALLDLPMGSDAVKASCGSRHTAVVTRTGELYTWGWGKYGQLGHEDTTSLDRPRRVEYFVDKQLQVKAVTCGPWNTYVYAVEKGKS
UniProt Q9Y4C8: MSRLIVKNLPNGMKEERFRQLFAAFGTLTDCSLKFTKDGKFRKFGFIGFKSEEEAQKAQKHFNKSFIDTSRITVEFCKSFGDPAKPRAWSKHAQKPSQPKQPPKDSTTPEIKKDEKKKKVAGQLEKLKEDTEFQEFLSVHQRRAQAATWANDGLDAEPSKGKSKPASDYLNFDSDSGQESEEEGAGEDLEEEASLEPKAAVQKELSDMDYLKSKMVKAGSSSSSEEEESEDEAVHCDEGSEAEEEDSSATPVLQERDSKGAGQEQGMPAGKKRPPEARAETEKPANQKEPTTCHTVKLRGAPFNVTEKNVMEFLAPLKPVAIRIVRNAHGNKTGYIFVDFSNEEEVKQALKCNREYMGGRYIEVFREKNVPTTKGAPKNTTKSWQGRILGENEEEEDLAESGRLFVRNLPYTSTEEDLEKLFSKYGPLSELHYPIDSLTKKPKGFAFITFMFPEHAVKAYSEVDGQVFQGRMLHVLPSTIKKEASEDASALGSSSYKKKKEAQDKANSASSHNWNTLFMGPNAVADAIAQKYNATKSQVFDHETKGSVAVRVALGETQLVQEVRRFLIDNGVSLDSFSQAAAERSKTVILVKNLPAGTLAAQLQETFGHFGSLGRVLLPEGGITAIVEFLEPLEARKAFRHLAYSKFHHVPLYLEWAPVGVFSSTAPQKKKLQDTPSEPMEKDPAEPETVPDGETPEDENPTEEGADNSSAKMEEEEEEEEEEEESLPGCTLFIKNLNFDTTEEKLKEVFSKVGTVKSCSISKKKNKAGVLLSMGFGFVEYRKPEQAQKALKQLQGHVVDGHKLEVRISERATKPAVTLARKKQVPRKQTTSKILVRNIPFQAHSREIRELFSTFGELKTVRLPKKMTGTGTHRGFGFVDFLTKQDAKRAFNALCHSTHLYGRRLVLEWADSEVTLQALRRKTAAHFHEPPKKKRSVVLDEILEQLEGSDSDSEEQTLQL
UniProt Q8TDY2, whole entry, looked up: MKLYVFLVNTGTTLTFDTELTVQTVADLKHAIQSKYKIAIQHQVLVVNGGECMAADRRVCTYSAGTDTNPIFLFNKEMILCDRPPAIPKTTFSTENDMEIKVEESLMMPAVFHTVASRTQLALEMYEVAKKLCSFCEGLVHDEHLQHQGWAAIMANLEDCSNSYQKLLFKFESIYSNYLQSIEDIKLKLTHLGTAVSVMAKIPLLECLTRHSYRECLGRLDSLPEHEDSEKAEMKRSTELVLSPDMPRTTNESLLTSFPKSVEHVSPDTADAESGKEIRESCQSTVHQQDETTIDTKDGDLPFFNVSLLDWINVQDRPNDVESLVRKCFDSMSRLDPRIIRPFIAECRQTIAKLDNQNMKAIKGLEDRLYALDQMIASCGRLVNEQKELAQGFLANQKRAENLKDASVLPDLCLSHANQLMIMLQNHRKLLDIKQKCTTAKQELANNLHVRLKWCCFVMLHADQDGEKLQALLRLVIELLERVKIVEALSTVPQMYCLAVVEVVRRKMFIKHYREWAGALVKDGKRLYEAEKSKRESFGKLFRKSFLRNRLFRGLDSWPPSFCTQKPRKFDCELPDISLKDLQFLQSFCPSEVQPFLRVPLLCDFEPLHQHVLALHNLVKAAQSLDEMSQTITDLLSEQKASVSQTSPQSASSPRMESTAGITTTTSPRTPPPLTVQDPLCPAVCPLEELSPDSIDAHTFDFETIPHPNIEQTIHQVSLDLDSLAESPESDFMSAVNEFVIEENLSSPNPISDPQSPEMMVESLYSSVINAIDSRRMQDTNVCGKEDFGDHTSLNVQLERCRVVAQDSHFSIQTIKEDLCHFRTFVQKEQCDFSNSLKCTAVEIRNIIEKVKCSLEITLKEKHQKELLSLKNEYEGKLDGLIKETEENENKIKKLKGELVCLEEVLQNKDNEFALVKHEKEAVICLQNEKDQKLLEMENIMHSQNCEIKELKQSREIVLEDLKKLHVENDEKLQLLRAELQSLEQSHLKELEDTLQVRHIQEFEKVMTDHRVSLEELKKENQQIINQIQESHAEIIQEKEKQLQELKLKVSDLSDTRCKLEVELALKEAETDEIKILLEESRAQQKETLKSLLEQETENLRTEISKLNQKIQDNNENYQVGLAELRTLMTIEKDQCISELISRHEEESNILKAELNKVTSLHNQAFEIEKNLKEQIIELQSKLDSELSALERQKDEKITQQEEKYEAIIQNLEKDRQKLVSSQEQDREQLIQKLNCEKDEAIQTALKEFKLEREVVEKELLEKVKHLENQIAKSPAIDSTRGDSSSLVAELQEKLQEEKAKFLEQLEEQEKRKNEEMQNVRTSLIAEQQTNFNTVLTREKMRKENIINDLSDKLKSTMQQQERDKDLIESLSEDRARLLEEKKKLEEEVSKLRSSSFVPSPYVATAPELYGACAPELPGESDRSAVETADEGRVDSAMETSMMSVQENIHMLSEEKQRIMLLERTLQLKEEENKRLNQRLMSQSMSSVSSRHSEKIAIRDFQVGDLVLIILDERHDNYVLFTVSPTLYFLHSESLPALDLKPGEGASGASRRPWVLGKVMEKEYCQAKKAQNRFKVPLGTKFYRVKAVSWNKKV
UniProt P78332: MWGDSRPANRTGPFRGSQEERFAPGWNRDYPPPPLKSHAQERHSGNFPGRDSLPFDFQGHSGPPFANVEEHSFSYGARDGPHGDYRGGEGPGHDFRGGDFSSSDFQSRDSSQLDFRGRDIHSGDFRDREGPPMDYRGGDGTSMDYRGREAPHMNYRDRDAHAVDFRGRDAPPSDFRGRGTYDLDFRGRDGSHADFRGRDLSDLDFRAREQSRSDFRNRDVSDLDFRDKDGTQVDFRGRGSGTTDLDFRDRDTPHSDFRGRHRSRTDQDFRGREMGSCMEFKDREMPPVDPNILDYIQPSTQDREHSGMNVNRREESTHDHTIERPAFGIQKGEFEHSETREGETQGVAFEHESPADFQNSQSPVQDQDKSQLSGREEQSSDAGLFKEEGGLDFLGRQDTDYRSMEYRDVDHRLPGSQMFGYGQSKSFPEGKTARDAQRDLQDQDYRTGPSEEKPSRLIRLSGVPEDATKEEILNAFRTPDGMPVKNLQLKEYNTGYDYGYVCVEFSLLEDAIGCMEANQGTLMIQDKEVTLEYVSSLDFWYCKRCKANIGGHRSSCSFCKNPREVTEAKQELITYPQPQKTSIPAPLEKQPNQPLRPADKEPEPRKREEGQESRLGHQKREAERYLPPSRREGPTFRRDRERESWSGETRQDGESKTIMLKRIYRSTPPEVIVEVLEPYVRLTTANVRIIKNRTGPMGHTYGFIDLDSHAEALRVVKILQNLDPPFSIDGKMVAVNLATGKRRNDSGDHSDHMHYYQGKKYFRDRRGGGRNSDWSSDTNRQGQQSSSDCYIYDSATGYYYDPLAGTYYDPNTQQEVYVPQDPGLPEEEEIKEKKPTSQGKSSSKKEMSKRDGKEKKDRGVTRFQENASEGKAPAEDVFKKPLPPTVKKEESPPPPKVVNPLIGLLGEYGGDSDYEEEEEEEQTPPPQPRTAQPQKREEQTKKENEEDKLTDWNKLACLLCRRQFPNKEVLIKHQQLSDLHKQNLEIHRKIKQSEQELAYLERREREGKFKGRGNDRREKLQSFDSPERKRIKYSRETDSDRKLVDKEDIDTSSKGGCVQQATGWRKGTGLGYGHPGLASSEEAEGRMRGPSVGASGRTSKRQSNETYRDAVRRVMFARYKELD
UniProt Q96PM5: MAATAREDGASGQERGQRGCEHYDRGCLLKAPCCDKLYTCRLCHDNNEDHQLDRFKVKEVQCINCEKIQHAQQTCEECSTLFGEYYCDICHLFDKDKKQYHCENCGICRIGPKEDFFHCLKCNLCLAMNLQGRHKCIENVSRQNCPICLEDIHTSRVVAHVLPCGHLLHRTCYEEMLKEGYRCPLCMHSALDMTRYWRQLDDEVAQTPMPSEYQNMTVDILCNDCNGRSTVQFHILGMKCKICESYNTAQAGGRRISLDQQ
UniProt Q7LDG7: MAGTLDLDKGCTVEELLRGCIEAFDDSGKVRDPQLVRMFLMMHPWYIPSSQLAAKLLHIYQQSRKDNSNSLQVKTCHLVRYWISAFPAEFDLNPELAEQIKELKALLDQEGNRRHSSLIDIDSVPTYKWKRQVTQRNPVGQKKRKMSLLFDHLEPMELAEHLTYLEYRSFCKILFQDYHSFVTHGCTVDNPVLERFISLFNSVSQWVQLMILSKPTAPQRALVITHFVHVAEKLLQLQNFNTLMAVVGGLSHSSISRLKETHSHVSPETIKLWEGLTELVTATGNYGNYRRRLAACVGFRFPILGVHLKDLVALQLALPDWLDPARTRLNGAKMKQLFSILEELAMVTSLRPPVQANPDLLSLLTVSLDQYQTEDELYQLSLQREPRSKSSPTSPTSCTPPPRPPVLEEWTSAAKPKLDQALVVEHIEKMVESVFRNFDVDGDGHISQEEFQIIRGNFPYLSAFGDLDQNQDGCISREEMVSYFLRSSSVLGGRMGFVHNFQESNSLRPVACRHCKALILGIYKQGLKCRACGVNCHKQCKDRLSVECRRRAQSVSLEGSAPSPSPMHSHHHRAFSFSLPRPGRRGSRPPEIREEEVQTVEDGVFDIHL
UniProt Q9UKM9: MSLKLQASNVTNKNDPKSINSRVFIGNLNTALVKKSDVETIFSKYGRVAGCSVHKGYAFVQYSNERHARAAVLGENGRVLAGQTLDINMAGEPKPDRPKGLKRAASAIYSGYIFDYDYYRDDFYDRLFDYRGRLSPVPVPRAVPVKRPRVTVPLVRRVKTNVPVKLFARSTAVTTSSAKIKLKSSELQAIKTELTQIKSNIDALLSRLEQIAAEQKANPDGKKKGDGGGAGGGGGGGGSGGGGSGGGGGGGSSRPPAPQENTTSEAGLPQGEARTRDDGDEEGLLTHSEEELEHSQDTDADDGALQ
UniProt Q86X27: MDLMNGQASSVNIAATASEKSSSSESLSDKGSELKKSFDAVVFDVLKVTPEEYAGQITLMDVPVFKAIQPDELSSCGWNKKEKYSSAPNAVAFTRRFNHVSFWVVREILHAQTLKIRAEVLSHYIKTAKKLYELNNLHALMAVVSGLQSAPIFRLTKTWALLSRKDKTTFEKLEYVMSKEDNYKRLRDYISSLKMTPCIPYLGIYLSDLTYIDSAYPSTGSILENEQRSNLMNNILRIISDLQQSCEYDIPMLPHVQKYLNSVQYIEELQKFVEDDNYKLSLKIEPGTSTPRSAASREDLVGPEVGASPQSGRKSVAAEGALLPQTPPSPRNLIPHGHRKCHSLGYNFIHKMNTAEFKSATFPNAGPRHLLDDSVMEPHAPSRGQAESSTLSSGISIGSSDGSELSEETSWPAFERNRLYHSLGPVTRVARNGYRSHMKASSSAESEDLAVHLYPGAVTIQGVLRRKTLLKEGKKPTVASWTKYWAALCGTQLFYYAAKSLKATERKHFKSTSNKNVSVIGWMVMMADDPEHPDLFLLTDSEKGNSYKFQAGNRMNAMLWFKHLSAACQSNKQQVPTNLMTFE

Compound: Cc1cc(ccc1-c1ccccc1)C(=O)N1CCCN(CC1)C(=O)CCl [compound 10]
Test: probe-labelled cysteine peptide fold change vs DMSO (competition) (log2 fold change); higher = less target engagement (more negative = stronger competition)
Details: 50 µM; THP-1; incubation time: 4 h
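Note: competitive profiling in live THP-1 cells: cysteine peptides tagged with an iodoacetamide desthiobiotin (IA-DTB) probe, intensity after compound treatment relative to DMSO-treated cells.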

Row | Target | probe-labelled cysteine peptide fold change
1 | RBM28_Q9NW13_97_NENSECPK (UniProt Q9NW13) | 0.16
2 | RCCD1_A6NED2_139_LPLLPCAR (UniProt A6NED2) | -1.9
3 | RASA3_Q14644_328_SADVEPVSASAAHILGEVCR (UniProt Q14644) | -0.241
4 | RBM19_Q9Y4C8_77_ITVEFCK (UniProt Q9Y4C8) | 0.0758
5 | RAPGEF1_Q13905_958_QTSEGLAEYCTLIDSSSSFR (UniProt Q13905) | -0.383
6 | RALGAPB_Q86X10_278_VPDEDASLIPPEMDNECVAQTWFR (UniProt Q86X10) | 0.188
7 | RB1CC1_Q8TDY2_603_VPLLCDFEPLHQHVLALHNLVK (UniProt Q8TDY2) | -1.09
8 | RBM6_P78332_960_LACLLCR (UniProt P78332) | 0.102
9 | RCHY1_Q96PM5_43_LCHDNNEDHQLDR (UniProt Q96PM5) | 2.12
10 | RASGRP2_Q7LDG7_11_GCTVEELLR (UniProt Q7LDG7) | -0.0624
11 | RALY_Q9UKM9_51_VAGCSVHK (UniProt Q9UKM9) | 0.07
12 | RAN_P62826_120_VCENIPIVLCGNK (UniProt P62826) | -0.0236
13 | RASGRP2_Q7LDG7_76_TCHLVR (UniProt Q7LDG7) | -0.125
14 | RALGPS2_Q86X27_341_CHSLGYNFIHK (UniProt Q86X27) | -0.32
15 | RCHY1_Q96PM5_148_QNCPICLEDIHTSR (UniProt Q96PM5) | 0.594
16 | RARS_P54136_32_NCGCLGASPNLEQLQEENLK (UniProt P54136) | -0.975
17 | RCHY1_Q96PM5_183+186_CPLCMHSALDMTR (UniProt Q96PM5) | -0.16

Taken from the listing for reference:
Row | Target | probe-labelled cysteine peptide fold change
8 | RBM6_P78332_960_LACLLCR (UniProt P78332) | 0.102
9 | RCHY1_Q96PM5_43_LCHDNNEDHQLDR (UniProt Q96PM5) | 2.12
